Laboratory results published in article PMC7862700.
This is a selection; strong and weak results do not stand in their true shares. At the low end of the ranking, values are background and their order means little.

The chains behind the UniProt entries cited, without tags or fusion partners. Where a name states a change or a piece, a line headed by the entry shows the natural chain unless it says otherwise.
UniProt O43186: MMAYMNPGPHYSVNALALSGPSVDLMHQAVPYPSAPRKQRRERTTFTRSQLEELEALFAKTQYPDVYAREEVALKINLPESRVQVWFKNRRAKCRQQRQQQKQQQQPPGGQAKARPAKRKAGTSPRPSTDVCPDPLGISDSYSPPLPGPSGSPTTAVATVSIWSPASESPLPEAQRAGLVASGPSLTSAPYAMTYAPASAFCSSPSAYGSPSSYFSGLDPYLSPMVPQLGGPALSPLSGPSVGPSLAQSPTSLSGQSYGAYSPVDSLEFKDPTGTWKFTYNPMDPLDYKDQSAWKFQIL

Legend:
Test in all cases: DAPPL (digital affinity profiling via proximity ligation, sequencing)
Settings in all cases: 10 mM Tris-HCl pH 7.5, 50 mM NaCl, 1 mM DTT, 4% glycerol, room temperature, 30 min; GST-TFs on glutathione beads, 16-mer random dsDNA library, 0.1% …; high values mean tight binding; double strand, one strand shown; scale: fold enrichment (6-mer frequency, TF over GST control)
FEV = molecular target: T1, FEV (UniProt Q99581)
T1 sequence: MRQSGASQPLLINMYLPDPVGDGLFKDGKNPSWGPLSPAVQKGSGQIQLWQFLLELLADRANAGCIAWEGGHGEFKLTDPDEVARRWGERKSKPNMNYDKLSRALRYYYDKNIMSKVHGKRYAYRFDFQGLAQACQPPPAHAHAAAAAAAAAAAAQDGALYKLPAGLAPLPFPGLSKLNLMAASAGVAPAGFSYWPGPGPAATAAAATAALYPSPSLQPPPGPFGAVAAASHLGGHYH

CRX = CRX (UniProt O43186)
ELF5 = molecular target: T2, ELF5 (UniProt Q9UKW6-2)
T2 sequence: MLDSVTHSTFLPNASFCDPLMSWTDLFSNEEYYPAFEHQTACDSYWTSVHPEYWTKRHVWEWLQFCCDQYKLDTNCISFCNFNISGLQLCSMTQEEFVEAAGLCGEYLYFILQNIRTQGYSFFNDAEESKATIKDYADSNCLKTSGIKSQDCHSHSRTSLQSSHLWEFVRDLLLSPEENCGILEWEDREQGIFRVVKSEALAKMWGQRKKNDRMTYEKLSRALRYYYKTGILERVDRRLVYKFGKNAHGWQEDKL

Row | Sequence | binding signal (FEV) | binding signal (CRX) | binding signal (ELF5)
1 | AGAAGG | 0.633 | 0.77 | 0.771
2 | ACCCGT | 0.882 | 0.784 | 0.86
3 | AGCGGC | 0.949 | 0.917 | 0.92
4 | GAGAAT | 0.672 | 0.913 | 0.718
5 | CCAAGT | 0.897 | 0.783 | 0.861
6 | ATTTGT | 1.34 | 1.58 | 1.26
7 | CGTAGC | 0.978 | 0.843 | 1.05
8 | ATTCGG | 0.901 | 0.989 | 0.854
9 | GAGCTC | 0.88 | 0.943 | 0.838
10 | TCACGT | 1.19 | 1.15 | 1.19
11 | CCCACC | 1.17 | 0.909 | 1.15
12 | ACCGTT | 0.93 | 0.81 | 0.97
13 | CCTAGG | 0.976 | 0.983 | 0.937
14 | GCAAAG | 0.938 | 0.894 | 0.899
15 | GCCATT | 0.967 | 0.875 | 0.94
16 | TCGTCA | 0.961 | 0.845 | 0.969
17 | TGAAGG | 0.86 | 0.86 | 0.943
18 | CCGCAA | 1.29 | 1.01 | 1.39
19 | GTGCGC | 0.96 | 0.698 | 0.919
20 | AAGAAG | 0.979 | 1.21 | 1.12
21 | GTGCTG | 0.865 | 0.657 | 0.837
22 | ACTCGG | 0.974 | 0.816 | 0.921
23 | GAAAGT | 0.794 | 0.842 | 0.87
24 | CGGCAC | 0.984 | 0.609 | 0.972
25 | GATATT | 1.04 | 1.31 | 1.25
26 | GCGGCA | 0.874 | 0.646 | 0.829
27 | TGAAGC | 0.935 | 0.978 | 0.94
28 | TAGACT | 0.934 | 1.27 | 0.909
29 | ACTGGG | 0.782 | 0.738 | 0.84
30 | CGTCGA | 0.864 | 0.812 | 0.918

An excerpt of these results, field by field:
AGCGGC
  binding signal (FEV) = 0.949
  binding signal (CRX) = 0.917
  binding signal (ELF5) = 0.92
GAGAAT
  binding signal (FEV) = 0.672
  binding signal (CRX) = 0.913
  binding signal (ELF5) = 0.718
